From PubChem BioAssay AID493014 (National Center for Advancing Translational Sciences (NCATS), 2011) come the findings set out here.

The other results are listed elsewhere or left out. These are further read-outs of the screen, such as a control signal, another cell line or another target. No call is given for them. The list favours compounds with an active or inconclusive main result. Potencies come from curve fits of mixed quality, noted in brackets. Peptide text beside a SMILES is read from it. * marks the point of attachment. Boc = CC(C)(C)OC(=O)*

A short description of the experiment: qHTS Assay to Find Inhibitors of Chronic Active B-Cell Receptor Signaling. Conditions: ABC-DLBCL IkBa-CBG/CBR reporter, luminescence ratio (green luciferase fused to IkBa over red control in TMD8 lymphoma cells), 4 h. The essentials:
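TMD8 ABC-DLBCL cells carrying doxycycline-inducible green luciferase fused to IkappaBalpha plus unfused red luciferase were exposed to compounds (up to 46 uM) for 4 hrs at 37C. Activity came from the overlap-corrected green/red luminescence ratio.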

[1] abbreviates: measured here: CBR red luminescence, cell number.
Where [2] appears, read: measured here: IkBa-CBG green luminescence.

Turning to `COc1cc([N+](=O)[O-])ccc1NC(=O)Nc1cccnc1`, under setting [1], the AC50 is 0.501 µM [rising, full curve, poor fit].

On to `CCCCCCC(=O)N(O)C1CC(=O)N(c2ccc(Br)cc2)C1=O` (configuration not stated), for which, under setting [1], the AC50 was 5.8 µM [falling, full curve, poor fit].

Turning to `COC(=O)c1c(-c2ccccc2)noc1C`, the AC50 under setting [1] was 35.5 µM [rising, single point].

Regarding `COc1ccc(NC(=O)Nc2ccccc2)cc1S(=O)(=O)N1CCCCC1`, under setting [1], the AC50 is 35.5 µM [falling, partial curve, poor fit].

Take `CC(C)CC(NC(=O)OC(C)(C)C)C(=O)NC(C(=O)N1CCCC1C(N)=O)C(C)C` (stereo not drawn) (Boc-Leu-Val-Pro-NH2; configuration not given here): the AC50 under setting [1] is 2.31 µM [rising, single point].

Take `N/C(=N\OC(=O)c1ccc(Cl)cc1)c1nonc1N`: the AC50 under setting [1] is 1.16 µM [rising, partial curve].

Take `Cc1sc(NC(=O)C2CCCCC2C(=O)O)c(C(N)=O)c1-c1ccc(C(C)C)cc1` (configuration not stated): the AC50 under setting [1] is 2.24 µM [falling, full curve, poor fit].

Regarding `COc1cc(/C=N/NC(=O)c2ccc(N)cc2)ccc1OC(=O)c1cccc(C)c1`, the AC50 under setting [1] was 12.6 µM [falling, partial curve, poor fit].

As to `COc1ccc(OC)c(CNC(=O)CCCc2cn(C)c3ccccc23)c1`, under setting [1], the AC50 was 4.11 µM [falling, partial curve, poor fit].

`Cc1cc(C)c2c(-n3cccc3)nn(CC#N)c2n1`: the AC50 under setting [1] is 1.12 µM [rising, full curve, poor fit].

Consider `Cc1ccc(N/N=C(\C#N)C(=O)c2ccsc2)cc1`, for which the AC50 under setting [1] is 14.1 µM [falling, single point].

For `O=C(/C=C/Nc1ccc(F)c(F)c1)c1cccs1`, the AC50 under setting [1] is 16.4 µM [falling, partial curve].

For `COc1ccc(C(=O)CSc2nnc(CN3CCCCC3)n2-c2ccc(F)cc2)cc1OC`, the AC50 under setting [1] is 29.1 µM [falling, single point].

`Cc1csc(C(C#N)C(=O)c2ccncc2)n1` (configuration not stated): under setting [1], the AC50 was 25.1 µM [falling, single point].

With `N#CC1=C(N)Oc2cc(Nc3ccccc3)ccc2C1c1ccncc1` (configuration not stated), the AC50 under setting [1] was 14.1 µM [falling, single point].

As to `Nc1ncnc2nc(SCCN3CCCCC3)[nH]c12`, the AC50 under setting [1] was 6.51 µM [rising, single point].

For `Cc1cc(C(=O)Nc2ccccc2)oc1C`, under setting [1], the AC50 is 22.4 µM [falling, single point].

For the molecule `COc1ccc(/C=C(\C#N)c2cc(OC)c(OC)cc2[N+](=O)[O-])cc1`, the AC50 under setting [1] is 5.62 µM [falling, single point].

On to `N#CCCCSc1ncccc1-c1nc2ccccc2[nH]1`, for which the AC50 under setting [1] is 0.794 µM [falling, full curve].

For the molecule `CCOC(=O)/C(C#N)=C/c1c(OCC)n(CC)c2ccccc12`, under setting [2], the AC50 was 18.4 µM [rising, partial curve, poor fit].

Take `CCOC(=O)C1=C(N)Oc2c(oc(CO)cc2=O)C1c1ccc(F)c(F)c1` (configuration not stated): the AC50 under setting [1] is 7.08 µM [falling, partial curve, poor fit].

On to `COCCNC(=O)c1ccc(C)c(S(=O)(=O)Nc2ccc(C)cc2)c1`, for which the AC50 under setting [1] is 0.116 µM [rising, full curve].

In the case of `COc1ccccc1OCCNc1cc(N2CCOCC2)ccc1[N+](=O)[O-]`, the AC50 under setting [1] is 6.51 µM [rising, full curve, poor fit].

Take `CCOC(=O)CSC1=C(C#N)C(c2sccc2C)CC(=O)N1` (configuration not stated): the AC50 is, setting by setting: under setting [1], 6.31 µM [rising, partial curve]; under setting [2], 12.6 µM [falling, partial curve].

With `COc1ccc(C(=O)OCc2c(F)cccc2Cl)cc1S(=O)(=O)N1CCOCC1`, under setting [1], the AC50 is 1.46 µM [rising, full curve].

In the case of `N#C/C(=C/c1ccc(F)cc1)S(=O)(=O)c1ccccc1`, the AC50 under setting [1] was 35.5 µM [falling, partial curve, poor fit].

`N#CC1=C2SCC(O)(c3ccccc3)N2C(=O)CC1c1ccccc1` (configuration not stated): the AC50 under setting [2] was 11.2 µM [falling, partial curve].

For `N#C/C(=C\c1ccc(F)c(Br)c1)C(=O)NC1CC1`, the AC50 under setting [1] is 3.98 µM [rising, full curve, poor fit].

As to `CCOC(=O)c1cc(-c2ccc3c(c2)OCCO3)n[nH]1`, under setting [1], the AC50 was 11.2 µM [falling, single point].

Consider `COc1ccc(C2=NN(C(=O)c3cccs3)C(c3ccccc3O)C2)cc1` (configuration not stated), for which the AC50 under setting [1] was 35.5 µM [falling, single point].

For `Cc1cccc(C(=O)N[C@H](C(=O)Nc2ccc(C)c(S(=O)(=O)N(C)C)c2)C(C)C)c1`, the AC50 under setting [1] is 2.82 µM [rising, full curve, poor fit].

With `Cc1ccc(S(=O)(=O)N2CCN(C(=O)CSc3nc4ccccc4o3)C2)cc1`, the AC50 under setting [1] is 10 µM [falling, partial curve].

`O=C(Nc1nccs1)c1cc(S(=O)(=O)N2CCOCC2)ccc1Cl`: under setting [1], the AC50 is 0.13 µM [falling, full curve, poor fit].

As to `COc1cc(/C=C2\CCC/C(=C\c3ccc(O)c(OC)c3)C2=O)ccc1O`, under setting [1], the AC50 is 35.5 µM [falling, single point].

Regarding `O=C(CSc1ncccc1-c1nc2ccccc2[nH]1)N1CCc2ccccc21`, the AC50 under setting [1] was 3.66 µM [falling, partial curve].

Turning to `N#CC(C#N)=C(Nc1ccc(F)cc1)SCc1cccc(F)c1`, the AC50 under setting [1] is 14.6 µM [falling, single point].

Turning to `COc1ccccc1-n1c(SCC(=O)N2CCCCC2)nc(O)c(Cc2ccccc2)c1=O`, the AC50 under setting [1] is 35.5 µM [falling, single point].

As to `O=C(CCl)N1CCCC1c1ccc2c(c1)OCCO2` (configuration not stated), the AC50 under setting [1] was 35.5 µM [falling, partial curve, poor fit].

For the molecule `CC(=O)NNC(=S)NC(=O)c1cccc([N+](=O)[O-])c1`, under setting [1], the concentration at half-maximal activity (AC50) was 29.1 µM [rising, single point].

On to `COc1ccc(CCNC(=O)CSc2nc(N)c(C#N)c(-c3cccs3)c2C#N)cc1OC`, for which the AC50 under setting [1] is 8.91 µM [falling, partial curve, poor fit].

Take `Cn1ccnc1SCC(=O)Nc1ccc(Cl)cn1`: the AC50 under setting [1] is 11.2 µM [falling, partial curve, poor fit].
